{"source": "PubChem BioAssay AID588827", "about": "(Broad Institute, 2011)", "note": "Screen size: about 2,400 compounds; about 20 (0.8%) were called active.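 How the source made its calls: active means fitted half-maximal concentration for signal decrease at or below twice the top tested dose, in every repeat run; inconclusive means repeat runs disagree, or flat partial inhibition, or poor fit; inactive means all runs flat, wrong-direction or potency beyond limit.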 The inconclusive results got no clear call from the source."}
{"experiment": "GFP reporter loss versus dox-driven RFP – NIH3T3 R4 cells, cherry-pick, set 4, dose response (AID 588827);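 further: 0% = neutral control wells and -100% = didemnin B at 400 nM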", "settings": "NIH3T3 R4 HSF-1 GFP reporter, heat shock, 48 h; at 19.5 µM (top of the series)"}
{"compound": "CC12CCC3C(CC=C4CC5(CCC43C)OCCO5)C1CCC2=O", "note": "(centres undefined)", "activity change, negative = inhibition": "inconclusive: -33.1%"}
{"compound": "CC1(C)C[C@H]2C=C(C=O)[C@]3(C=O)C[C@]3(C)[C@H]2C1", "activity change, negative = inhibition": "inconclusive: -51.6%"}
{"compound": "O=[N+]([O-])c1ccc(N2CCNCC2)cc1NCC1CCCO1", "note": "(centres undefined)", "activity change, negative = inhibition": "inconclusive: 8.17%"}
{"compound": "C[C@H]1C[C@@H](C)C(=O)[C@@H]([C@H](O)CC2CC(=O)NC(=O)C2)C1", "activity change, negative = inhibition": "inconclusive: -14.7%"}
{"compound": "Cc1ccc(N2C(=O)NC(=O)/C(=C/c3cnn(-c4ccc(C)cc4)c3)C2=O)cc1", "activity change, negative = inhibition": "inconclusive: 27.9%"}
{"compound": "Cn1c2ccccc2c2cnn(CC(=O)N3CCC4(CC3)OCCO4)c(=O)c21", "activity change, negative = inhibition": "inconclusive: -29.1%"}
{"compound": "CC(C)(C)n1cc(C(=O)c2ccc3ccccc3c2O)cn1", "activity change, negative = inhibition": "inconclusive: -20.7%"}
{"compound": "CC(=O)OC(C)(C)/C=C/C(=O)C(C)(O)C1[C@H](O)C[C@@]2(C)C3CC=C4C(CC[C@@H](O)C4(C)C)[C@]3(CO)C(=O)C[C@]12C", "note": "(some centres undefined)", "activity change, negative = inhibition": "inconclusive: -28.4%"}
{"compound": "CCCCCn1c(=O)c(C(=O)Nc2ccccn2)c(O)c2ccccc21", "activity change, negative = inhibition": "inconclusive: -35%"}
{"compound": "O=[N+]([O-])c1ccc(N2CCCC2)c2ccncc12", "activity change, negative = inhibition": "inconclusive: -29.4%"}
{"compound": "Nc1ncnc2c1ccn2[C@@H]1O[C@H](CO)[C@@H](O)[C@H]1O", "activity change, negative = inhibition": "inconclusive: -116%"}
{"compound": "O=C(C1CCCO1)N1CCC2(CC1)OCCO2", "note": "(centres undefined)", "activity change, negative = inhibition": "inconclusive: 5.09%"}
{"compound": "CN=C(SCc1cc2c(cc1Cl)OCO2)c1c(O)n(C)c(=O)n(C)c1=O", "activity change, negative = inhibition": "inconclusive: -6.49%"}
{"compound": "O=C1CC(N2CC=C(c3ccc(F)cc3)CC2)C(=O)N1c1ccc(F)cc1", "note": "(centres undefined)", "activity change, negative = inhibition": "inconclusive: 20.1%"}
